## Primary screen of a compound library

From ChEMBL document CHEMBL3988442, “University of Dundee, Small-Polar-MMV Screening Library” (2021).

Values are the deposited “Percent Effect”, in %.
How 0% and 100% were set is not recorded. Most values in the screen are low, and negative values occur.
Compounds were drawn at random from those tested, without regard to their results.

Mtb growth Cornell: 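Whole-cell assay for inhibitors of Mycobacterium tuberculosis growth, labelled Cornell in the record; the read-out is not stated. The concentration is filed as 10 mM, unlikely as a test dose, so the dose is not known. Higher means stronger inhibition (inferred from two other growth screens of the library). About 53,000 compounds were tested under these conditions; 1.7% (about 900) showed 50% or more at least once.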
Mtb heat-shock: 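Assay on Mycobacterium tuberculosis, filed only as a heat shock assay from Cornell; the read-out is not stated. The concentration is filed as 10 mM, unlikely as a test dose, so the dose is not known. The record gives no direction; compounds that gave an IC50 in retests scored well above the rest, so higher reads as stronger inhibition. About 69,000 compounds were tested under these conditions; 1.4% (about 930) showed 50% or more at least once.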

With CCOCC1CN(Cc2cccs2)Cc2nn(C)cc21.O=C(O)C(F)(F)F (centres unmarked) the screen gave Mtb growth Cornell: -20.75%; Mtb heat-shock: -10.34%. Cc1ccc(OCc2nc(CNCCn3cccn3)cs2)cc1 read Mtb growth Cornell: 44.09%; Mtb heat-shock: 94.11%. With CCn1cc(C2CCN(Cc3ccnc(N(C)C)c3)CC2)cn1 the screen gave Mtb growth Cornell: -2.624%; Mtb heat-shock: 7.118%. Cc1oc(-c2ccc(F)cc2)nc1CN1CCOCS1(=O)=O gave Mtb growth Cornell: 13.72%; Mtb heat-shock: -7.916%. Cc1cccc(OC2CCN(c3nccnc3C#N)CC2)n1 read Mtb growth Cornell: -4.1%; Mtb heat-shock: -17.45%. O=C(Cc1cccs1)N1CCCC(CNS(=O)(=O)Cc2ccccc2)C1 (centres unmarked) gave Mtb growth Cornell: 2.554%; Mtb heat-shock: 5.732%. Cc1ccc(C(=O)N2CCCC(c3cc(C(F)(F)F)[nH]n3)C2)o1 (centres unmarked) read Mtb heat-shock: 13.14%.

Result for CCc1nc(C2CCCN(C(=O)c3cccc4cn[nH]c34)C2)no1 (centres unmarked) was Mtb growth Cornell: 18.44%; Mtb heat-shock: 27.91%. CC(CCS(C)(=O)=O)NC(=O)NCc1ccc2ccccc2c1 (centres unmarked) read Mtb growth Cornell: 2.236%; Mtb heat-shock: -2.744%. For Cn1ncc2c1C(COCC1CC1)CN(Cc1ccncc1)C2 (centres unmarked) the result was Mtb growth Cornell: -3.535%; Mtb heat-shock: -49.19%. O=C(Cc1cccc(F)c1F)NS(=O)(=O)c1ccc(Cl)cn1 gave Mtb growth Cornell: -63.49%; Mtb heat-shock: -5.677%. Result for Cc1ccc2c(n1)N(CCn1cccn1)CCN(C1CCOCC1)C2.O=C(O)C(F)(F)F.O=C(O)C(F)(F)F was Mtb heat-shock: -10.35%. Cc1nnc(CN2C[C@H](NC(=O)C3CCOCC3)[C@@H](C(C)C)C2)s1 read Mtb growth Cornell: 13.62%; Mtb heat-shock: -16.48%. With Cn1cc(C2SCC(=O)Nc3c2cnn3C(C)(C)C)cn1 (centres unmarked) the screen gave Mtb growth Cornell: 3.837%; Mtb heat-shock: -6.634%.

With Cc1cnc(CN(Cc2ccc(C#N)cc2F)C2CCN(C)C2)o1 (centres unmarked) the screen gave Mtb heat-shock: 10.75%. CC(C)(C)NC(=O)c1ccn(COc2ccccc2Cl)n1 gave Mtb growth Cornell: -8.92%; Mtb heat-shock: -2.39%. COCC1CCN(S(=O)(=O)NCC2COc3ccccc3C2)CC1 (centres unmarked) read Mtb growth Cornell: 2.787%; Mtb heat-shock: -35.55%. For O=C(O)c1sccc1Oc1ccc(NC(=O)C2CC2)cc1 the result was Mtb growth Cornell: 55.89%; Mtb heat-shock: 25.87%. With Cc1nn(C)c(N2CCOCC2)c1CNC(C(N)=O)c1ccccc1 (centres unmarked) the screen gave Mtb growth Cornell: 16.06%; Mtb heat-shock: 25.12%. Result for CS(=O)(=O)c1ccc2c(c1)N(C(=O)Cc1cccc(F)c1)CCC2 was Mtb growth Cornell: 23.44%; Mtb heat-shock: -4.405%. Cc1occc1C(=O)N1CCCN(Cc2nccn2C)CC1 read Mtb growth Cornell: 3.371%; Mtb heat-shock: -6.865%.

Result for CCOc1ncccc1C(=O)N1CCCC1Cn1nc(C)cc1C (centres unmarked) was Mtb heat-shock: 11.38%. For Cc1cc(C)n(C2CCCN(C(=O)C3=NN(C)C(=O)CC3)C2)n1 (centres unmarked) the result was Mtb growth Cornell: 3.895%; Mtb heat-shock: 1.53%. Result for C[C@@H]1CN(c2cc(N3CCC(O)CC3)ncn2)C[C@@]1(O)C1CC1 was Mtb growth Cornell: 8.234%; Mtb heat-shock: 2.592%. Cn1c(SCC(=O)NC(C)(C#N)C2CC2)nc2ccccc21 (centres unmarked) read Mtb growth Cornell: 9.245%; Mtb heat-shock: 4.86%.